This is one part of the list. The data scatter; read single values as rough.
Columns and labels:
[1] = compound: ClCC(=O)N[C@@H]1CCCc2ccccc12; assay: log2 mean competition ratio of IA-DTB cysteine labelling (DMSO/compound) (log2 ratio); higher = stronger cysteine engagement by compound; settings: treatment time: 4 h, cell line lysate: HEK293T
Protocol: (§1)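 IA-DTB competitive cysteine chemoproteomics in HEK293T RIPA lysate. Lysates were treated with compound 29 or 30 at 50 or 200 µM for 4 h, then IA-DTB (500 µM, 1 h), trypsin-digested, NeutrAvidin-enriched and analysed by diaPASEF. Competition ratio = intensity DMSO / intensity compound (n=4 treated, n=64 DMSO); binding: mean log2 CR ≥ 1 and p ≤ 0.05 plus QC filters. Target is the cysteine site.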

Chains of the proteins cited; added tags and fusions are not shown. Lines headed by an entry give the natural chain unless they say otherwise; changes in a name come on top. Residues count along the entry.
UniProt O95347, whole entry, looked up: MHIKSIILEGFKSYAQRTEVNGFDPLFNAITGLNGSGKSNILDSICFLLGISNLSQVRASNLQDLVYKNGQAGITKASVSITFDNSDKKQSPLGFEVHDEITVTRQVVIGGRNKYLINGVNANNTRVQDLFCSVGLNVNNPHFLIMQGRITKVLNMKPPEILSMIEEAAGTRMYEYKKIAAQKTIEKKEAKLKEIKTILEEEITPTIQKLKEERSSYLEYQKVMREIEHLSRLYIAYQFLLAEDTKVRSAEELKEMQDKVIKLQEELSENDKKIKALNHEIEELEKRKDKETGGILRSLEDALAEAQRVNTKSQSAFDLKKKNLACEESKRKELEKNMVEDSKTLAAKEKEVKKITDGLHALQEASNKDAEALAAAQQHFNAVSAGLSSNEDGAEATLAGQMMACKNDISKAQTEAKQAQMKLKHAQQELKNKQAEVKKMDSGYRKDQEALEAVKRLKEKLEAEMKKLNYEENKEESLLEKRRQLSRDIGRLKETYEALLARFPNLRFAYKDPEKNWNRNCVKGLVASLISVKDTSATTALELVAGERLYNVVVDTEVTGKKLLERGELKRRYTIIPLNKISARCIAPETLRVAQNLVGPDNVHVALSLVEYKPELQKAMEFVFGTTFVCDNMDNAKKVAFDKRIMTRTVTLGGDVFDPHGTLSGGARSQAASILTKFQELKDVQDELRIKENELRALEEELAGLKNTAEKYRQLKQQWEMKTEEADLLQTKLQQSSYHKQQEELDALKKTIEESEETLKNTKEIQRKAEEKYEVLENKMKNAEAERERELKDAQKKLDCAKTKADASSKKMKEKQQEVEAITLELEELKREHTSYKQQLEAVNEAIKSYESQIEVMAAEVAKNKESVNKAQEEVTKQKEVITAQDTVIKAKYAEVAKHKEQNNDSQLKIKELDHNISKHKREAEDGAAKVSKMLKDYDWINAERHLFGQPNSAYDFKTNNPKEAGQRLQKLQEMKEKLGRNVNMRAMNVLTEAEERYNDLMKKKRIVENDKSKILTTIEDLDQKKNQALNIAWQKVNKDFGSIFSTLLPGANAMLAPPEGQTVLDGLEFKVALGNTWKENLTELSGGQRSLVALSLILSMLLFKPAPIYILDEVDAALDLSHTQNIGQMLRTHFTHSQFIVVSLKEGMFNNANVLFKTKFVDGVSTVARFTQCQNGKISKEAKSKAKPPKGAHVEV
UniProt Q5VYV7: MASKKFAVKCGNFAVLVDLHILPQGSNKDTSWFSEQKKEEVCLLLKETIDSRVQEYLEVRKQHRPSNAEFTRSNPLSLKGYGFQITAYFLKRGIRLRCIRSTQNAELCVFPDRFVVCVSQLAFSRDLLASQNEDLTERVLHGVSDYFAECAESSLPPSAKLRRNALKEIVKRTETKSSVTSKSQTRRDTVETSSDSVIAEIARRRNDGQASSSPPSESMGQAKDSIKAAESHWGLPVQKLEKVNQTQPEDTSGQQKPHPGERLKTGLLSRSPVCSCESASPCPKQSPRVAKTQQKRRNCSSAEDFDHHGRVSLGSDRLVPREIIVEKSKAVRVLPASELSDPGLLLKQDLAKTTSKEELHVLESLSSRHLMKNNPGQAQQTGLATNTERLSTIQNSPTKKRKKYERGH
UniProt Q9NRA2: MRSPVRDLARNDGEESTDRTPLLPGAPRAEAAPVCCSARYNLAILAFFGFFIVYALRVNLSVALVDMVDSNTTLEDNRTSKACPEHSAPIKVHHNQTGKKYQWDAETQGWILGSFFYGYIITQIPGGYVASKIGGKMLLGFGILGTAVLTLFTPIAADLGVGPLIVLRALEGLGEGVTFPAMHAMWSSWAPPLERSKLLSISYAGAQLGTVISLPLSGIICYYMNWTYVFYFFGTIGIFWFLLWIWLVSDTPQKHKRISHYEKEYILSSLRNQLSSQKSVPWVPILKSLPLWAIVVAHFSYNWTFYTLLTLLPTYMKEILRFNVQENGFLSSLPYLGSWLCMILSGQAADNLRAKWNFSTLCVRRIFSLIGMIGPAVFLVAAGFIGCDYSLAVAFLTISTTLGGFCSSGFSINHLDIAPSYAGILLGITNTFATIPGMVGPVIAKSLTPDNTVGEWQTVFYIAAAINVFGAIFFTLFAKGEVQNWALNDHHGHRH
UniProt Q00796: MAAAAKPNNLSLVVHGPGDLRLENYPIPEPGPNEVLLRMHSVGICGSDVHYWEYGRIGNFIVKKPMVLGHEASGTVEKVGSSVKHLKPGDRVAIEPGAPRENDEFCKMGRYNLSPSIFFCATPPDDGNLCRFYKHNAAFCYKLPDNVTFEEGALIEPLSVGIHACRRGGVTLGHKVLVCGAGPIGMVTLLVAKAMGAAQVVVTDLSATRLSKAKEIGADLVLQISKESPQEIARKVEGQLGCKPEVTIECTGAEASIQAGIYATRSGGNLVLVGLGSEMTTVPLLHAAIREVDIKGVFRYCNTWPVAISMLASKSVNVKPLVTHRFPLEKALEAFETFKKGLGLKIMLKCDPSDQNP
UniProt Q9H3E2: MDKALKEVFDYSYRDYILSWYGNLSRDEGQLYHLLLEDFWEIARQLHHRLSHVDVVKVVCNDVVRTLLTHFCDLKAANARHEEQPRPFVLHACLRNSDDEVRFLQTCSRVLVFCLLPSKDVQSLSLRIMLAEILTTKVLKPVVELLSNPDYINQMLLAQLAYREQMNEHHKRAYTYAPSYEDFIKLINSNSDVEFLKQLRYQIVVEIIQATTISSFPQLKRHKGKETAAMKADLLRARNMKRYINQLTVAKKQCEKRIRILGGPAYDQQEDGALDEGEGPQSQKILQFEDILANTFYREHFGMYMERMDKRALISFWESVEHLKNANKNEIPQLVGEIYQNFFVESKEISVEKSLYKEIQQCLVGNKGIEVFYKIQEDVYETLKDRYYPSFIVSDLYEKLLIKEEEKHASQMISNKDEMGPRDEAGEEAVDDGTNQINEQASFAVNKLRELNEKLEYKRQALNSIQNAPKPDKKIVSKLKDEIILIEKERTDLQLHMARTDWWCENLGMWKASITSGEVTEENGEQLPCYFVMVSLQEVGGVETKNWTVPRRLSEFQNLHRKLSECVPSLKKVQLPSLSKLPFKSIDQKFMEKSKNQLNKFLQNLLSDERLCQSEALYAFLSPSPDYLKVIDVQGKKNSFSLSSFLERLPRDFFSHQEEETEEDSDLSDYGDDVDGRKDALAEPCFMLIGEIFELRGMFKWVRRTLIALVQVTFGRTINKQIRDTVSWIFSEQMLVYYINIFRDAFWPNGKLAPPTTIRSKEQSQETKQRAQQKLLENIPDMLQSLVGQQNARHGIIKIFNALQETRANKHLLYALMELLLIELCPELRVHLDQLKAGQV
UniProt Q8IY18: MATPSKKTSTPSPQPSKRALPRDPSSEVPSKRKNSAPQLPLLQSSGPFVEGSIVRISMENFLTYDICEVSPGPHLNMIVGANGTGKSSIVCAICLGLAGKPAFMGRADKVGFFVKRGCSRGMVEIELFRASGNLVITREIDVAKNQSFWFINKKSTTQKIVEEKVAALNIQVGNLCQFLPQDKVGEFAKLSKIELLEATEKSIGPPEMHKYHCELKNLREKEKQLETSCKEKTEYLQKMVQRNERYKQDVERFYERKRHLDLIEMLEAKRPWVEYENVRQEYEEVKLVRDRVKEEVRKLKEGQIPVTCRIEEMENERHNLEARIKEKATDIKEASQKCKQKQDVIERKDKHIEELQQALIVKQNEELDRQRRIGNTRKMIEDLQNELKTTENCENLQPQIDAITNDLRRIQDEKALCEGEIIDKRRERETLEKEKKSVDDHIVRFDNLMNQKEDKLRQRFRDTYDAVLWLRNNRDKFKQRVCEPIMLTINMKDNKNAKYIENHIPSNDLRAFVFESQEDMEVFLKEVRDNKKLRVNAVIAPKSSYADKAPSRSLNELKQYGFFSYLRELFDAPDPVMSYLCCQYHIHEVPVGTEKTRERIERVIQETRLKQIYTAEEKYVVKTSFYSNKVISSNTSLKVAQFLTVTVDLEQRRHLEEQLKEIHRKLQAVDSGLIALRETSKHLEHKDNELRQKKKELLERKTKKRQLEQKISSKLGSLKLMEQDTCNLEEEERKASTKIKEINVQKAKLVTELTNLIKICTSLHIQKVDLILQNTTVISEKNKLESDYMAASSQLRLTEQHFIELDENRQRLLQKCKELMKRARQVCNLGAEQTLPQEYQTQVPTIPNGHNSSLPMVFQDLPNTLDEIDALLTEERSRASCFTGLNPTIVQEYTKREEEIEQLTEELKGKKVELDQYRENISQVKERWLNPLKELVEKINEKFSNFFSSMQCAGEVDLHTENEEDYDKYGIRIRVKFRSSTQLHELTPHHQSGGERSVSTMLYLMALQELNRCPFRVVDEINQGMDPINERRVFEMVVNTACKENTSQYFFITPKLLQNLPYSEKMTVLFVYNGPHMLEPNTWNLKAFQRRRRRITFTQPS
UniProt O60264, whole entry, looked up: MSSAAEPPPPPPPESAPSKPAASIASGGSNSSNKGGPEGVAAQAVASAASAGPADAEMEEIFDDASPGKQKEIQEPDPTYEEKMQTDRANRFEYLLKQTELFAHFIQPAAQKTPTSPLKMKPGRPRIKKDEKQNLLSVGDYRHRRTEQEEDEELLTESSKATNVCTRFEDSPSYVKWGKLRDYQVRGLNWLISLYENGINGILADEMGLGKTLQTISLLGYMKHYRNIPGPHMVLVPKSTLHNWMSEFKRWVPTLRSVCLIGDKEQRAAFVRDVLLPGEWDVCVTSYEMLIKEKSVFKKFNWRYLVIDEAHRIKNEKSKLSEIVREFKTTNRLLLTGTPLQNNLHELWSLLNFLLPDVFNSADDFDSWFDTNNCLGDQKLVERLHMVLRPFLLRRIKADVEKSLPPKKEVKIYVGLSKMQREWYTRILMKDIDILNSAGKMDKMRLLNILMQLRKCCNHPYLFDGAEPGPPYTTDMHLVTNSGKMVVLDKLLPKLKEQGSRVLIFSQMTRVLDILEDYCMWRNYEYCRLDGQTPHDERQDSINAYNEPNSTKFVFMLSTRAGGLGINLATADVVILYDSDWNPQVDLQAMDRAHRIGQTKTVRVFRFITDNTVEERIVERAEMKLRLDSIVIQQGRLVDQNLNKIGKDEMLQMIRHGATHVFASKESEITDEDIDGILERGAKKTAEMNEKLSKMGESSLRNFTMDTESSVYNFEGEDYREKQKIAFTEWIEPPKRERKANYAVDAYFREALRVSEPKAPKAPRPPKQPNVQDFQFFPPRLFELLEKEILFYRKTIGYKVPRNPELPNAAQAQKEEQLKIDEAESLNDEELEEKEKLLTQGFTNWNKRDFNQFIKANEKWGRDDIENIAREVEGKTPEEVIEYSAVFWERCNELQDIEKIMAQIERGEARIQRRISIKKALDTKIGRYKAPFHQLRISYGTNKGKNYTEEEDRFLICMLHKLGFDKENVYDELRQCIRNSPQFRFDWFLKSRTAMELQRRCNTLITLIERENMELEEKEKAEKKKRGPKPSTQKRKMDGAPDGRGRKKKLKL
UniProt O95295: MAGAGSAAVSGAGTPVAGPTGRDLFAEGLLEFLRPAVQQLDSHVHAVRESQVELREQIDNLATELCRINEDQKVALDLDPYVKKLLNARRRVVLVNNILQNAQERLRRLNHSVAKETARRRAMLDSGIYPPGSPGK
UniProt Q9H4L7, 88-113: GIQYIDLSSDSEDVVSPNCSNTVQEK
UniProt Q96CW6: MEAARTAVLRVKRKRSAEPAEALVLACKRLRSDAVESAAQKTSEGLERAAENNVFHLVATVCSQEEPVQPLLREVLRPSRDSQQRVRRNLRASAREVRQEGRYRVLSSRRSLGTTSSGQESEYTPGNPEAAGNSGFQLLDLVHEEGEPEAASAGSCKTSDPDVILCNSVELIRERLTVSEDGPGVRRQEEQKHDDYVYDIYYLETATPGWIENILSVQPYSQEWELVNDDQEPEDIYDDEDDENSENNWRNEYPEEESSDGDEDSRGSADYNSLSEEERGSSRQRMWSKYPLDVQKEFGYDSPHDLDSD
UniProt O75387: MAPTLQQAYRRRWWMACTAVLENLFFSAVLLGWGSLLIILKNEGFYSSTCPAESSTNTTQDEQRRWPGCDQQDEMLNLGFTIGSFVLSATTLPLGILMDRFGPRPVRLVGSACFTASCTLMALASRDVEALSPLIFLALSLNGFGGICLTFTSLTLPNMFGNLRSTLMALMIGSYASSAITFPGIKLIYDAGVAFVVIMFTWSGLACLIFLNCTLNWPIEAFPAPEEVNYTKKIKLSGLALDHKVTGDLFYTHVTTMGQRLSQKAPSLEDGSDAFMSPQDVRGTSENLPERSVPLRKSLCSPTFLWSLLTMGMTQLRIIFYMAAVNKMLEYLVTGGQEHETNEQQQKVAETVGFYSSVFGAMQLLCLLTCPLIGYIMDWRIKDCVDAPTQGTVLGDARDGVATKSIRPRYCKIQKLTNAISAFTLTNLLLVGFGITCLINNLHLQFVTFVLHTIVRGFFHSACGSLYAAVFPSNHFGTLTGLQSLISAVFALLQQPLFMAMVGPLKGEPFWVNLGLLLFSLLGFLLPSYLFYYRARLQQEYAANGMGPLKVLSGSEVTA

[2] = compound: ClCC(=O)N[C@H]1CCCc2ccccc12; assay: as above; settings: treatment time: 4 h, cell line lysate: HEK293T
Protocol: as §1

| Target | log2 mean competition ratio ([1]; 50 µM) | log2 mean competition ratio ([1]; 200 µM) | log2 mean competition ratio ([2]; 50 µM) | log2 mean competition ratio ([2]; 200 µM) |
| --- | --- | --- | --- | --- |
| SLC6A15 C91 | 0.0582 | 0.323 | -0.3 | 0.329 |
| SMC2 C326 (UniProt O95347) | -0.0713 | 0.0487 | 0.00251 | 0.0172 |
| SLX4 C1269 (UniProt Q8IY92) | -0.164 | -0.178 | -0.42 | -0.198 |
| SLX4IP C299 (UniProt Q5VYV7) | 0.0282 | 0.0175 | -0.102 | 0.0787 |
| SLC17A5 C83 (UniProt Q9NRA2) | 0.117 | -0.445 | -0.066 | -0.656 |
| SORD C106 (UniProt Q00796) | -0.182 | 0.124 | -0.101 | 0.338 |
| SNX25 C60 (UniProt Q9H3E2) | -0.185 | 0.298 | -0.194 | 0.206 |
| SMC5 C726 (UniProt Q8IY18) | -0.136 | -0.0566 | -0.616 | -0.339 |
| SOS1 C372 (UniProt Q07889) | -0.156 | 0.309 | -0.172 | 0.267 |
| SMARCA5 C165 (UniProt O60264) | -0.0325 | 0.103 | 0.0472 | 0.133 |
| SORT1 C702 (UniProt Q99523) | 0.253 | 0.604 | -0.0354 | 0.52 |
| SNAPIN C66 (UniProt O95295) | -0.16 | 0.0145 | 0.0673 | 0.251 |
| SMC2 C585 (UniProt O95347) | 0.146 | 0.0198 | 0.246 | 0.0123 |
| SMARCAD1 C575 (UniProt Q9H4L7) | 0.244 | -0.122 | 0.00813 | -0.234 |
| SLC7A6OS C27 (UniProt Q96CW6) | 0.0239 | 0.00907 | -0.46 | -0.129 |
| SMG1 C890 (UniProt Q96Q15) | 0.0576 | -0.375 | 0.0037 | -0.182 |
| SOX4 C52 (UniProt Q06945) | -0.219 | 0.261 | -0.247 | 0.57 |
| SMARCAD1 C462 (UniProt Q9H4L7) | -0.0878 | -0.0175 | -0.0989 | -0.172 |
| SLC4A7 C993 (UniProt Q9Y6M7) | -0.111 | -0.31 | -0.519 | -0.602 |
| SMARCAD1 C106 (UniProt Q9H4L7) | -0.245 | -0.38 | 0.591 | -0.38 |
| SMG7 C537 (UniProt Q92540) | -0.119 | -0.171 | -0.0881 | -0.232 |
| SLC43A1 C384 (UniProt O75387) | -0.0445 | 0.0344 | -0.369 | -0.0391 |
| SNX9 C427 (UniProt Q9Y5X1) | -0.00501 | -0.343 | -0.0991 | -0.121 |
| SMARCAD1 C861 (UniProt Q9H4L7) | 0.197 | -0.0298 | -0.122 | -0.0102 |

A different layout for part of the listing above.
Target	log2 mean competition ratio ([1]; 50 µM)	log2 mean competition ratio ([1]; 200 µM)	log2 mean competition ratio ([2]; 50 µM)	log2 mean competition ratio ([2]; 200 µM)
SLC6A15 C91	0.0582	0.323	-0.3	0.329
SNAPIN C66 (UniProt O95295)	-0.16	0.0145	0.0673	0.251
SMC2 C585 (UniProt O95347)	0.146	0.0198	0.246	0.0123
SLC7A6OS C27 (UniProt Q96CW6)	0.0239	0.00907	-0.46	-0.129
SLC4A7 C993 (UniProt Q9Y6M7)	-0.111	-0.31	-0.519	-0.602

Reference: the supplement of paper PMC11732987, “Enantioselective OTUD7B fragment discovery through chemoproteomics screening and high-throughput optimisation” (Communications Chemistry, 2025)
